Reference: the supplement of paper PMC10849652
This is one part of the list.

Amino acid sequences for entries named in this document (tags omitted). A change or cut given only in a name is not applied to a line headed by its entry.
UniProt Q9Y6Q9, whole entry, looked up: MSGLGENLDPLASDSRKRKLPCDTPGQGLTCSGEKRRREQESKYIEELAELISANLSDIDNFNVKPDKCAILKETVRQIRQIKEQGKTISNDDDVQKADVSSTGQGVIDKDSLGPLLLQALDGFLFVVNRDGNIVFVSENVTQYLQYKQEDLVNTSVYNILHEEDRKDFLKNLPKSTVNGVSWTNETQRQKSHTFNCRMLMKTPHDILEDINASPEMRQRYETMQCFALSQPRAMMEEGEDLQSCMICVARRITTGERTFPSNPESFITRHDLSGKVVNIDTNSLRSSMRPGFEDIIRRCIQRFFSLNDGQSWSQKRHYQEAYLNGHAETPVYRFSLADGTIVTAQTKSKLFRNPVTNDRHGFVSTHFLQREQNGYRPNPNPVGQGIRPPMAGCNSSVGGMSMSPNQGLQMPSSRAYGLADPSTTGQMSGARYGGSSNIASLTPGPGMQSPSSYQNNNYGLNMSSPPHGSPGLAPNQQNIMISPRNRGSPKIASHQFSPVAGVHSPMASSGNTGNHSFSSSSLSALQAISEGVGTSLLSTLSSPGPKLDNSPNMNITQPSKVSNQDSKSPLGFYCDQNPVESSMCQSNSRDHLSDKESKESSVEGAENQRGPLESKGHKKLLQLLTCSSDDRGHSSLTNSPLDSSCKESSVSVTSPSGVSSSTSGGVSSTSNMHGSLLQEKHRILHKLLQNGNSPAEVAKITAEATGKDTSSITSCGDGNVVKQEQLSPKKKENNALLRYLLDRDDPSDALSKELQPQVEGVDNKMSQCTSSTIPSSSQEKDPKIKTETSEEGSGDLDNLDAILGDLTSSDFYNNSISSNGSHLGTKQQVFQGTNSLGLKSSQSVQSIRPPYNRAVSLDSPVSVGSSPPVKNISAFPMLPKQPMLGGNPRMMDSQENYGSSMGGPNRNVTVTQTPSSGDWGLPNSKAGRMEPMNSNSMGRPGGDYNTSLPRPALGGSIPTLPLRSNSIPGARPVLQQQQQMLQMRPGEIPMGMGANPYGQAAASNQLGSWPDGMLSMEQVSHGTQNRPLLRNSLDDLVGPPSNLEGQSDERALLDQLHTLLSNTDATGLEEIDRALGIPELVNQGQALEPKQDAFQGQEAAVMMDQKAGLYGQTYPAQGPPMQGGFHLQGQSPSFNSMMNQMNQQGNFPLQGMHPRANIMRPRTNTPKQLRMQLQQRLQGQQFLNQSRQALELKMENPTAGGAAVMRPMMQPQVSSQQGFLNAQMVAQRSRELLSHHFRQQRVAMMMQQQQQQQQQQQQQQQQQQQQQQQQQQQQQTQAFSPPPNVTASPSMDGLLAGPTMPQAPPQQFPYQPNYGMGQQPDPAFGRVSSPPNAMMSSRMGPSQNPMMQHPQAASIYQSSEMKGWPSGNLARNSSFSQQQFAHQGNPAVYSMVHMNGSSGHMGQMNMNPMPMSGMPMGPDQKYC
UniProt Q9NR45: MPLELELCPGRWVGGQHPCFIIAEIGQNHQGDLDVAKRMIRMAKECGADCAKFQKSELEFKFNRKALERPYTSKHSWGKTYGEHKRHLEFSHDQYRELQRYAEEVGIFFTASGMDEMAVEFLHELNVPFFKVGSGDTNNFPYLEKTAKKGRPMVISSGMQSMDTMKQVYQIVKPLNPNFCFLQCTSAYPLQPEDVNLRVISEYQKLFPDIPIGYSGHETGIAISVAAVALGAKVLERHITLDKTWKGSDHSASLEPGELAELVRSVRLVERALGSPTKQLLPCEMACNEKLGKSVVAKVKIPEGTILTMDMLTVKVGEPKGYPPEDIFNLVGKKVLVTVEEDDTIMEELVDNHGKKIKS
UniProt Q9GZZ1: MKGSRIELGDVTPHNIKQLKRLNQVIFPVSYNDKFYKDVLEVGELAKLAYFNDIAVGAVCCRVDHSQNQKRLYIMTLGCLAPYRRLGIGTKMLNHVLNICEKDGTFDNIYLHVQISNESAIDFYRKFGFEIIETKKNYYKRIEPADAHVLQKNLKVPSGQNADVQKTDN
UniProt P54920: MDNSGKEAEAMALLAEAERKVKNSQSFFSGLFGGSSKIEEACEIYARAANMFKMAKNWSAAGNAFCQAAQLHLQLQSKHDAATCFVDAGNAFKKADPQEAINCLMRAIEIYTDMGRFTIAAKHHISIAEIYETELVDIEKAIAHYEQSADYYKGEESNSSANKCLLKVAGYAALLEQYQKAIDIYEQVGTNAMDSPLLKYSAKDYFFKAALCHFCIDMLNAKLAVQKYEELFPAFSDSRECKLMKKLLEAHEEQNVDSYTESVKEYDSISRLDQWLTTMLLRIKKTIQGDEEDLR
UniProt Q9UJ70, whole entry, looked up: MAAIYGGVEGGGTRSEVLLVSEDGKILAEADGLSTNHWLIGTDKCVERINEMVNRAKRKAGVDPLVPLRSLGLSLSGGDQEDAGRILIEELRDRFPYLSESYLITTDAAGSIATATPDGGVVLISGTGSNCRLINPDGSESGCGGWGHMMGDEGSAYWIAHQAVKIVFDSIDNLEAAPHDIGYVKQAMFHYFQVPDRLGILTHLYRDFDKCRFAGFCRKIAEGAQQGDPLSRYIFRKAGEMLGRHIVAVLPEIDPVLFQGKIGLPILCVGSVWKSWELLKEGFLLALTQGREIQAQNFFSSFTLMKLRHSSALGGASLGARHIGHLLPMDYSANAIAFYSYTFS
UniProt P14649: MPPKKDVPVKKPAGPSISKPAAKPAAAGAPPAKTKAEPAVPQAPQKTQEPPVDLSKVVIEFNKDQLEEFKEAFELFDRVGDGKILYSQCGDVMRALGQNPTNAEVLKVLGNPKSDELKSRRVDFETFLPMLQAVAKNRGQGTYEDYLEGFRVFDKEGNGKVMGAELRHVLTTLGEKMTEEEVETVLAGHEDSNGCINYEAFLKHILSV
UniProt Q6IA69: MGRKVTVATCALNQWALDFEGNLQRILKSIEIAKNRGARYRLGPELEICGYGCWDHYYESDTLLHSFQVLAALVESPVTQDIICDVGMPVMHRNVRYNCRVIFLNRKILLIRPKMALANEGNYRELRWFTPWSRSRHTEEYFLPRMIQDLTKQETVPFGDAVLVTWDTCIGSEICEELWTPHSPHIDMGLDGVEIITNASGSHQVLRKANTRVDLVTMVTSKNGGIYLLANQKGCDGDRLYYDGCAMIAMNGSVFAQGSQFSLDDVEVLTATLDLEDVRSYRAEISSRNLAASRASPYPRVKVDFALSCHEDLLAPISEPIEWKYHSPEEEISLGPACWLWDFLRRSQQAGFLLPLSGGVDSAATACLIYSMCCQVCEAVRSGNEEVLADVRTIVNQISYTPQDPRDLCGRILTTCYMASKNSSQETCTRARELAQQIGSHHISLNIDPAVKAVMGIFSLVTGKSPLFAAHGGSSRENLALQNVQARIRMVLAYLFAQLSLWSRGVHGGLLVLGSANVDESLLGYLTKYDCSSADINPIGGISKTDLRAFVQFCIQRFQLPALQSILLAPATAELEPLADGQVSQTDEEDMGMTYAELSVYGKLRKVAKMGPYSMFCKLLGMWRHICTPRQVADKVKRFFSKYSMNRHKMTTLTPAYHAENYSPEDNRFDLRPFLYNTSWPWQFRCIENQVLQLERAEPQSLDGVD
UniProt Q9UHQ1: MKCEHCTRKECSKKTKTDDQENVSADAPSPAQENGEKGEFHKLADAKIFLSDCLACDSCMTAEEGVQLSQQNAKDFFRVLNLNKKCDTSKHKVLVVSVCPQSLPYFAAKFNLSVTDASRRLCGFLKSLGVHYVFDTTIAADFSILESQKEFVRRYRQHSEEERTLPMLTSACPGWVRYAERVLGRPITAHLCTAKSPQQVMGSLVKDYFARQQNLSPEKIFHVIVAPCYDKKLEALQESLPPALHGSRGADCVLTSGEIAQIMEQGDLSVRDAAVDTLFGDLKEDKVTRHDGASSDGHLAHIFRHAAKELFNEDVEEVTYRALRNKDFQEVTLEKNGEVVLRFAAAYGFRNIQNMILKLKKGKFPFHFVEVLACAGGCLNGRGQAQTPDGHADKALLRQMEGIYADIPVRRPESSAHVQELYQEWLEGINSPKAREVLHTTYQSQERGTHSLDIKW
UniProt Q9H0A0: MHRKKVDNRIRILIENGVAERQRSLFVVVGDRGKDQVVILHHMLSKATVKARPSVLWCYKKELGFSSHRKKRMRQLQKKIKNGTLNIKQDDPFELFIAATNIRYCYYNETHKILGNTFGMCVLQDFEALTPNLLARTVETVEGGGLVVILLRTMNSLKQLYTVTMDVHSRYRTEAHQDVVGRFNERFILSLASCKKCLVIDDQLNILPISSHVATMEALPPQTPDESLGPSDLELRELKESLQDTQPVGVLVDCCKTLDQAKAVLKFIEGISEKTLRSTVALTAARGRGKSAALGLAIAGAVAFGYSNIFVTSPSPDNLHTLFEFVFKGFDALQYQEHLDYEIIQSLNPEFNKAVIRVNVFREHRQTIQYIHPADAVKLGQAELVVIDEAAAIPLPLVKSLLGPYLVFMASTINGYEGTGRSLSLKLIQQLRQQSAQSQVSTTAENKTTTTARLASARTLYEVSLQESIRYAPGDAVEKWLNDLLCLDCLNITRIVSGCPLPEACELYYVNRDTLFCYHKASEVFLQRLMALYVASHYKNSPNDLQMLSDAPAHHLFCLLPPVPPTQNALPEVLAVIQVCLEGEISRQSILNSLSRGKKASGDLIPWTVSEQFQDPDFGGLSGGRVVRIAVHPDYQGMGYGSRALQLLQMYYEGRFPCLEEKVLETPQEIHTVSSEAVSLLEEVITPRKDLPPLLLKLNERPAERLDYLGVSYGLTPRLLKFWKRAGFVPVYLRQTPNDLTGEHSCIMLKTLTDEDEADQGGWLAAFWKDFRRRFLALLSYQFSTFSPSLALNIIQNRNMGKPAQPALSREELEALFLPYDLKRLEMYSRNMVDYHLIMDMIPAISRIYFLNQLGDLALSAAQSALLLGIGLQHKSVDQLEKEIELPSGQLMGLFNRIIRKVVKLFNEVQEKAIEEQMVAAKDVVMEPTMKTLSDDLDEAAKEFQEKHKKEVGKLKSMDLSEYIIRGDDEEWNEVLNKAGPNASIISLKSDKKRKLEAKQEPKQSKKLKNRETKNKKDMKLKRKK
UniProt Q96HR8: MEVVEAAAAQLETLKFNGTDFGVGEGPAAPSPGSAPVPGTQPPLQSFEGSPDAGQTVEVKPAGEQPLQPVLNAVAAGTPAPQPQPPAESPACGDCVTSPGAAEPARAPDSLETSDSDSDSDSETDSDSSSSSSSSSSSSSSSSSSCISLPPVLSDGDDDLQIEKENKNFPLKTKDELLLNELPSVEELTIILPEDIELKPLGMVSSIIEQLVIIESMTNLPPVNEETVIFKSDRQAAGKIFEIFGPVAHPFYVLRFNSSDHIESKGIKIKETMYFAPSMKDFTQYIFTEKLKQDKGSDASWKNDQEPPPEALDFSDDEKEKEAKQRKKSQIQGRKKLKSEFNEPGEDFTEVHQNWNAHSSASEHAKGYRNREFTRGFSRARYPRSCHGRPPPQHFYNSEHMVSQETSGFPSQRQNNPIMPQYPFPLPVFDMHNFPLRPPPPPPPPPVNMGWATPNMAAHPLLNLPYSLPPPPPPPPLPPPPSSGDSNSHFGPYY

How the values were obtained:
Test in all cases: log2 fold change, soluble protein after heating vs DMSO (PISA); higher = thermal stabilisation; K562 lysate, 10 uM; active = over 0.2 and 3.5 SD of the protein, either way, in both replicates (recomputed)
erlotinib = compound: C#Cc1cccc(Nc2ncnc3cc(OCCOC)c(OCCOC)cc23)c1 [erlotinib]
In short: (§1)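 A 30 min treatment with 10 μM compound was applied to crude K562 extract at 1 mg/mL protein in PBS pH 7.4 with 1 mM MgCl2. Heating for 3 min spanned 48°C-58°C, after which aliquots were pooled, adjusted to 0.5% NP-40 at 4°C and spun at 21,000xg for 90 min. TMTpro 16plex LC-MS/MS of the supernatant, with channel sums equalised, gave values recorded as log-two fold change in thermal stability against solvent controls, from duplicates.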

[1] = compound: C/C(=N\NC(=O)C1=CC(=CC=C1)S(=O)(=O)N2CCOCC2)/C3=C(C=CC(=C3)Cl)O
In short: as §1

[2] = compound: C1=CC(=CC=C1C2=NC3=C(N2)C=C(C=C3)C(=O)N)OC4=CC=C(C=C4)Cl
In short: as §1

[3] = compound: C1=CC2=C(C=CC(=C2)/C=C\3/C(=O)NC(=NCC4=CC=CS4)S3)N=C1
In short: as §1

[4] = compound: C1=CC2=NC=CN=C2C=C1/C=C/3\C(=O)NC(=O)S3
In short: as §1

[5] = compound: C1=CC=C(C=C1)C2=NC(=C(N2)C3=CC=NC=C3)C4=CC(=C(C=C4)Cl)O
In short: as §1

[6] = compound: C1=CC=C2C(=C1)C3=NNC4=CC=CC(=C43)C2=O
In short: as §1

[7] = compound: C1CCN(C1)C(=O)NC2=CC=CC(=C2)NC3=NC=C(C(=N3)NCCC4=CN=CN4)Br
In short: as §1

[8] = compound: C1CN(CCC1(CC2=CC=C(C=C2)Cl)N)C3=NC=NC4=C3C=CN4
In short: as §1

IRAK-1-4 Inhibitor I = compound: C1COCCN1CCN2C3=CC=CC=C3N=C2NC(=O)C4=CC(=CC=C4)[N+](=O)[O-] [IRAK-1-4 Inhibitor I]
In short: as §1

ibrutinib = compound: C=CC(=O)N1CCC[C@@H](n2nc(-c3ccc(Oc4ccccc4)cc3)c3c(N)ncnc32)C1 [ibrutinib]
In short: as §1

[9] = compound: CC(=O)c1cnc2ccc(-c3cc(Cl)c(O)c(Cl)c3)nc2c1N[C@H]1CC[C@H](CN(C)C)CC1
In short: as §1

ralimetinib = compound: CC(C)(C)Cn1c(N)nc2ccc(-c3[nH]c(C(C)(C)C)nc3-c3ccc(F)cc3)nc21 [ralimetinib]
In short: as §1

[10] = compound: CC(C)(O)CC(=O)NCCn1ccc2ncnc(Nc3ccc(Oc4cccc(C(F)(F)F)c4)c(Cl)c3)c21
In short: as §1

[11] = compound: CC(C)C1=C2N=C(C=C(N2N=C1)NCC3=CC=CC=C3)NCCCCCCN
In short: as §1

[12] = compound: CC1=C(C(CC(=O)N1)C2=CC=C(C=C2)C(F)(F)F)C(=O)NC3=C(C=C4C(=C3)C=NN4)F
In short: as §1

[13] = compound: CC1=C(C2=C(C=C1)C(=O)C3=CC=CC=C3N2CCCN)C
In short: as §1

[14] = compound: CC1=C(C=C(C=C1)NC(=O)C2=CC(=CC=C2)C(C)(C)C#N)NC3=CC4=C(C=C3)N=CN(C4=O)C
In short: as §1

[15] = compound: CC1=C(C=C(C=C1)NC(=O)C2=CC(=CC=C2)N(C)C)NC(=O)C3=CC=C(C=C3)O
In short: as §1

[16] = compound: CC1=CC=C(C=C1)SC2=C3C=C(SC3=CN=C2)C(=O)N
In short: as §1

Measured: log2 fold change

NAA40 (UniProt Q86UY6)
inactive: erlotinib 0.002 | [1] 0.03 | [2] -0.012 | [3] 0.065 | [4] -0.123 | [5] 0.055 | [6] 0.033 | [7] 0.048 | [8] -0.024 | IRAK-1-4 Inhibitor I -0.004 | ibrutinib 0.023 | [9] 0.027 | ralimetinib 0.052 | [10] -0.002 | [11] -0.044 | [12] -0.053 | [13] -0.039 | [14] -0.007 | [15] -0.033 | [16] 0.043

NCOR2 (UniProt C9J0Q5)
inactive: erlotinib 0.044 | [1] 0.033 | [2] 0.04 | [3] -0.082 | [4] -0.008 | [5] 0.054 | [6] -0.173 | [7] -0.002 | [8] 0.049 | IRAK-1-4 Inhibitor I 0.032 | ibrutinib -0.002 | [9] -0.001 | ralimetinib -0.026 | [10] -0.056 | [11] -0.034 | [12] 0.046 | [13] 0.022 | [14] -0.064 | [15] -0.014 | [16] -0.04

NCOA3 (UniProt Q9Y6Q9)
inactive: erlotinib 0.033 | [1] 0.001 | [2] -0.014 | [3] -0.07 | [4] -0.003 | [5] -0.038 | [6] -0.03 | [7] -0.02 | [8] 0.061 | IRAK-1-4 Inhibitor I 0.031 | ibrutinib 0.062 | [9] 0.065 | ralimetinib 0.029 | [10] -0.053 | [11] 0.009 | [12] -0.042 | [13] -0.009 | [14] -0.049 | [15] 0.003 | [16] -0.014

NANS (UniProt Q9NR45)
inactive: erlotinib -0.024 | [1] 0.007 | [2] -0.012 | [3] -0.019 | [4] 0.029 | [5] 0.003 | [6] 0.033 | [7] 0 | [8] -0.01 | IRAK-1-4 Inhibitor I -0.011 | ibrutinib 0.014 | [9] 0.006 | ralimetinib 0.019 | [10] 0.012 | [11] 0.002 | [12] -0.012 | [13] 0.021 | [14] -0.012 | [15] 0.008 | [16] -0.001

NBEAL2 (UniProt Q6ZNJ1)
inactive: erlotinib 0.032 | [1] 0.011 | [2] -0.031 | [3] 0.038 | [4] 0.017 | [5] -0.004 | [6] -0.032 | [7] -0.012 | [8] 0.024 | IRAK-1-4 Inhibitor I -0.01 | ibrutinib -0.048 | [9] 0.011 | ralimetinib 0.023 | [10] -0.047 | [11] 0.003 | [12] 0.036 | [13] -0.011 | [14] 0.047 | [15] 0.06 | [16] -0.013

NAA50 (UniProt Q9GZZ1)
inactive: erlotinib 0.024 | [1] 0.042 | [2] 0.004 | [3] 0.007 | [4] -0.004 | [5] 0.005 | [6] 0.009 | [7] 0.015 | [8] 0.023 | IRAK-1-4 Inhibitor I 0.011 | ibrutinib -0.011 | [9] -0.004 | ralimetinib -0.029 | [10] 0.007 | [11] -0.01 | [12] -0.012 | [13] 0.005 | [14] 0.009 | [15] -0.024 | [16] 0.033

Random excerpt: two records from the list
NCOA3 (UniProt Q9Y6Q9)
inactive: erlotinib 0.033 | [1] 0.001 | [2] -0.014 | [3] -0.07 | [4] -0.003 | [5] -0.038 | [6] -0.03 | [7] -0.02 | [8] 0.061 | IRAK-1-4 Inhibitor I 0.031 | ibrutinib 0.062 | [9] 0.065 | ralimetinib 0.029 | [10] -0.053 | [11] 0.009 | [12] -0.042 | [13] -0.009 | [14] -0.049 | [15] 0.003 | [16] -0.014

NCOR2 (UniProt C9J0Q5)
inactive: erlotinib 0.044 | [1] 0.033 | [2] 0.04 | [3] -0.082 | [4] -0.008 | [5] 0.054 | [6] -0.173 | [7] -0.002 | [8] 0.049 | IRAK-1-4 Inhibitor I 0.032 | ibrutinib -0.002 | [9] -0.001 | ralimetinib -0.026 | [10] -0.056 | [11] -0.034 | [12] 0.046 | [13] 0.022 | [14] -0.064 | [15] -0.014 | [16] -0.04

(next part)

NAPA (UniProt P54920)
inactive: erlotinib -0.012 | [1] -0.018 | [2] 0.008 | [3] 0.011 | [4] 0.034 | [5] 0.042 | [6] 0.006 | [7] 0.011 | [8] 0 | IRAK-1-4 Inhibitor I -0.025 | ibrutinib 0.016 | [9] -0.009 | ralimetinib -0.017 | [10] 0.001 | [11] -0.02 | [12] -0.016 | [13] -0.02 | [14] 0.048 | [15] -0.024 | [16] -0.011

NAGK isoform 2 (UniProt Q9UJ70)
inactive: erlotinib 0.003 | [1] 0.041 | [2] -0.012 | [3] -0.053 | [4] 0.013 | [5] 0.026 | [6] 0.007 | [7] 0.007 | [8] 0.028 | IRAK-1-4 Inhibitor I -0.018 | ibrutinib 0.02 | [9] 0.076 | ralimetinib 0.012 | [10] 0.016 | [11] -0.036 | [12] 0.03 | [13] 0.023 | [14] -0.041 | [15] -0.025 | [16] -0.021

MYL6B (UniProt P14649)
inactive: erlotinib -0.032 | [1] -0.036 | [2] -0.015 | [3] 0.042 | [4] 0.007 | [5] 0.012 | [6] -0.006 | [7] 0.02 | [8] 0.001 | IRAK-1-4 Inhibitor I 0.003 | ibrutinib 0.035 | [9] 0.041 | ralimetinib -0.004 | [10] 0.012 | [11] -0.025 | [12] -0.028 | [13] 0.011 | [14] 0.011 | [15] -0.03 | [16] 0.012

NAV1 (UniProt Q8NEY1)
inactive: erlotinib -0.015 | [1] 0.151 | [2] 0.006 | [3] -0.032 | [4] -0.003 | [5] -0.044 | [6] -0.045 | [7] -0.066 | [8] 0.049 | IRAK-1-4 Inhibitor I 0.052 | ibrutinib -0.054 | [9] 0.085 | ralimetinib -0.012 | [10] -0.083 | [11] 0.022 | [12] -0.011 | [13] -0.031 | [14] -0.021 | [15] 0.077 | [16] 0.123

NADSYN1 (UniProt Q6IA69)
inactive: erlotinib -0.015 | [1] -0.079 | [2] 0.032 | [3] 0.058 | [4] -0.005 | [5] 0.009 | [6] 0.007 | [7] -0.024 | [8] 0.015 | IRAK-1-4 Inhibitor I -0.02 | ibrutinib 0.009 | [9] -0.004 | ralimetinib 0.031 | [10] -0.016 | [11] -0.035 | [12] 0.018 | [13] 0.028 | [14] -0.025 | [15] 0 | [16] -0.017

NARF (UniProt Q9UHQ1)
inactive: erlotinib 0.005 | [1] 0.006 | [2] 0.042 | [3] 0.007 | [4] -0.005 | [5] 0.004 | [6] 0.004 | [7] -0.009 | [8] -0.021 | IRAK-1-4 Inhibitor I -0.009 | ibrutinib 0.004 | [9] 0.044 | ralimetinib -0.007 | [10] -0.013 | [11] -0.013 | [12] -0.007 | [13] -0.011 | [14] -0.013 | [15] -0.008 | [16] -0.113

NBAS (UniProt A2RRP1)
inactive: erlotinib 0.026 | [1] -0.01 | [2] 0.042 | [3] -0.072 | [4] 0.019 | [5] -0.058 | [6] 0.045 | [7] -0.004 | [8] -0.046 | IRAK-1-4 Inhibitor I 0.093 | ibrutinib -0.046 | [9] 0.001 | ralimetinib 0.047 | [10] -0.099 | [11] -0.018 | [12] 0.049 | [13] 0.006 | [14] -0.049 | [15] -0.109 | [16] 0.064

NAT10 (UniProt Q9H0A0)
inactive: erlotinib 0.016 | [1] -0.038 | [2] -0.025 | [3] 0.011 | [4] -0.041 | [5] 0.025 | [6] 0 | [7] -0.014 | [8] 0.025 | IRAK-1-4 Inhibitor I -0.016 | ibrutinib 0.025 | [9] -0.011 | ralimetinib 0.026 | [10] -0.037 | [11] -0.007 | [12] -0.006 | [13] 0.013 | [14] 0.015 | [15] 0.018 | [16] 0.041

NCOR1 (UniProt O75376)
inactive: erlotinib 0.011 | [1] -0.05 | [2] 0.081 | [3] 0.004 | [4] -0.014 | [5] -0.041 | [6] -0.001 | [7] 0.009 | [8] 0.019 | IRAK-1-4 Inhibitor I 0.022 | ibrutinib 0.002 | [9] 0.015 | ralimetinib 0.021 | [10] -0.033 | [11] 0.014 | [12] 0.026 | [13] -0.026 | [14] 0 | [15] -0.006 | [16] -0.005

NAF1 (UniProt Q96HR8)
inactive: erlotinib -0.077 | [1] -0.005 | [2] 0.033 | [3] 0 | [4] -0.004 | [5] -0.12 | [6] 0.012 | [7] -0.004 | [8] 0 | IRAK-1-4 Inhibitor I 0.018 | ibrutinib 0.052 | [9] 0.008 | ralimetinib -0.017 | [10] 0.002 | [11] -0.025 | [12] 0.062 | [13] 0.008 | [14] -0.208 | [15] -0.036 | [16] -0.001
